The supplement of paper PMC10849652
The other results are listed elsewhere or left out. Residues, ends and D or L forms follow the SMILES beside them. *: point of attachment. Cbz = O=C(OCc1ccccc1)*

Chains of the proteins cited; added tags and fusions are not shown. Lines headed by an entry give the natural chain unless they say otherwise; changes in a name come on top.
UniProt O60512: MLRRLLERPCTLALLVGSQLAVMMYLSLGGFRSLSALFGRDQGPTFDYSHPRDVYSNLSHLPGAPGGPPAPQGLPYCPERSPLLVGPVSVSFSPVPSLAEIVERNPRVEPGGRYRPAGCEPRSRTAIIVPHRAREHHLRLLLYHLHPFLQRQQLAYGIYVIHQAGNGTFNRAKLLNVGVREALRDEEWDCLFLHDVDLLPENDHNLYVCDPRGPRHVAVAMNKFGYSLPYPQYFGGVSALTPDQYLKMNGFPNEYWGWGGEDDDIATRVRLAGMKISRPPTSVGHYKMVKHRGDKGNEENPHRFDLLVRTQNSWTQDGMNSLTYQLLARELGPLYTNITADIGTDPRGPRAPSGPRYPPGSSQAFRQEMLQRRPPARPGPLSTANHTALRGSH
UniProt O95999: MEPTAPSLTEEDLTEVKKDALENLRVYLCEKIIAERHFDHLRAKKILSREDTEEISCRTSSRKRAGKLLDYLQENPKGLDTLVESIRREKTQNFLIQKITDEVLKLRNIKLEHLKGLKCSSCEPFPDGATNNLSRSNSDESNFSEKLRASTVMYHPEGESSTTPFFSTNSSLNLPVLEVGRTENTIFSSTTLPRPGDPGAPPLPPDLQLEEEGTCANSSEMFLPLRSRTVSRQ
UniProt Q9UL45: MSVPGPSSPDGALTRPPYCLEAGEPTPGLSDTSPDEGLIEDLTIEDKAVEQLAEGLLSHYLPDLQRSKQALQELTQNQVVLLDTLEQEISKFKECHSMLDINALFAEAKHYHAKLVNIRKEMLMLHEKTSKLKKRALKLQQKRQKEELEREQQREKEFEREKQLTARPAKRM
UniProt Q6Y288: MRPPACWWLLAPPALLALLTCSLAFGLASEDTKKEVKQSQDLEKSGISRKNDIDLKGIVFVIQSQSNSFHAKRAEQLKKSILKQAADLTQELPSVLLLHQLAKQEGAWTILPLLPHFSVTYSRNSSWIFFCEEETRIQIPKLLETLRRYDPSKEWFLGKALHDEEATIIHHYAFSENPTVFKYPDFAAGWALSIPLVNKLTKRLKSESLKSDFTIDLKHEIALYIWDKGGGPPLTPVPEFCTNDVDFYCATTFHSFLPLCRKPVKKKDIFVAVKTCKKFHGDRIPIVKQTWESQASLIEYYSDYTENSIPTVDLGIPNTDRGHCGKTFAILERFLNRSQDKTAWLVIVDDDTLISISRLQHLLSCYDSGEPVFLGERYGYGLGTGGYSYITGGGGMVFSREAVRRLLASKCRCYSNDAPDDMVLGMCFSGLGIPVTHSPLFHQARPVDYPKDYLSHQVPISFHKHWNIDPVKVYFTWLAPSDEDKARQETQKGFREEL
UniProt P46379: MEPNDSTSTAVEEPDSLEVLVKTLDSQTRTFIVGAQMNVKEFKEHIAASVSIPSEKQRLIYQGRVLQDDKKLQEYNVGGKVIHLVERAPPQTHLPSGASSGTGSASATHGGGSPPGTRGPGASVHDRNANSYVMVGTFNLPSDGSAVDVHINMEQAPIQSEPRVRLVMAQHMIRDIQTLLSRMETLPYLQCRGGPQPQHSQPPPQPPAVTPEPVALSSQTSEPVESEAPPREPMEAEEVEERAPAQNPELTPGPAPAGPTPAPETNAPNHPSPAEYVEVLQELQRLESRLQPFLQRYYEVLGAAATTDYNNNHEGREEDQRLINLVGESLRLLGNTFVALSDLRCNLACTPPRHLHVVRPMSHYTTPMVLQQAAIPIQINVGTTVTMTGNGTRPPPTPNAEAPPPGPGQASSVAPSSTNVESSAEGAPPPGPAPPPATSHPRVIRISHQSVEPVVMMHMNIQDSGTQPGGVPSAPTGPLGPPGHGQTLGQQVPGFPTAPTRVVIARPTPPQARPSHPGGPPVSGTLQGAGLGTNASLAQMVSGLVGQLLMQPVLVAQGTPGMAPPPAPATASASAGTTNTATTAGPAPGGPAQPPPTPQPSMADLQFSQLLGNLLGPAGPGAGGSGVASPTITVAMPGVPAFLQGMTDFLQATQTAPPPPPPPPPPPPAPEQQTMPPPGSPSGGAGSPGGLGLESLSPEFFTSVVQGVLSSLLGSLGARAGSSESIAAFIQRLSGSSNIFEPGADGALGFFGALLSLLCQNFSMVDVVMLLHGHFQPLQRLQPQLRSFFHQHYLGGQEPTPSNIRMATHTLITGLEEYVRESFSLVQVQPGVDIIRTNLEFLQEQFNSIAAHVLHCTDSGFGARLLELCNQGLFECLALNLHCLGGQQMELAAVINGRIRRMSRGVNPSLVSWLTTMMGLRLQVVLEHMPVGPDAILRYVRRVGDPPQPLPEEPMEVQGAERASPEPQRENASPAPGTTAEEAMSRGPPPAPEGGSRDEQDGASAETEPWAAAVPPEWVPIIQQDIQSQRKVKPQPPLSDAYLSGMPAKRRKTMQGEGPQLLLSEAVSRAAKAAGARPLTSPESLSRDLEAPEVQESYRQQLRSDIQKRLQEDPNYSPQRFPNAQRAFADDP
UniProt Q9NW68: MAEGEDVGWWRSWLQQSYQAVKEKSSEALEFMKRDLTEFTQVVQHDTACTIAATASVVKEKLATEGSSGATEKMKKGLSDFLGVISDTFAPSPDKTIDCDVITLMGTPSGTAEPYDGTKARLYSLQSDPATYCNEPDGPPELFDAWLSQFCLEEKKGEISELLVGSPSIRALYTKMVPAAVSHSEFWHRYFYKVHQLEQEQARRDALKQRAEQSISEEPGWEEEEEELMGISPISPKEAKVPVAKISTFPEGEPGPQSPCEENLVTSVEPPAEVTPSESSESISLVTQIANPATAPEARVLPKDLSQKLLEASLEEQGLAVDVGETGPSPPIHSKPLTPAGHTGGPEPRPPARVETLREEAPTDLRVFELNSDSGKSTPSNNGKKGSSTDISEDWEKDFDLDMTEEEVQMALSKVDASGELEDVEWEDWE
UniProt Q9UHR4: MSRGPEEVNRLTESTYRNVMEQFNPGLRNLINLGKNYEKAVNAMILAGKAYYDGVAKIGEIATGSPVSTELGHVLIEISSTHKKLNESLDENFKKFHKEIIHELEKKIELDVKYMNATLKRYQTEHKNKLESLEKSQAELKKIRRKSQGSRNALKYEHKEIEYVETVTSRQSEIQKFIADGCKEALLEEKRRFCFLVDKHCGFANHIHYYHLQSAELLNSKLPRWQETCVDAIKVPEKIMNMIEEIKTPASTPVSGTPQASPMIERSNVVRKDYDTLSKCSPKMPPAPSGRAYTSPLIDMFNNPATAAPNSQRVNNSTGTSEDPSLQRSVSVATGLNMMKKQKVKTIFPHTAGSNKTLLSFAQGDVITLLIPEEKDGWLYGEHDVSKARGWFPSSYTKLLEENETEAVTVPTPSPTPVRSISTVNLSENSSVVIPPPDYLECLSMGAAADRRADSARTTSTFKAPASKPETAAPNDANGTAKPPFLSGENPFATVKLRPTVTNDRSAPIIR
UniProt O95816: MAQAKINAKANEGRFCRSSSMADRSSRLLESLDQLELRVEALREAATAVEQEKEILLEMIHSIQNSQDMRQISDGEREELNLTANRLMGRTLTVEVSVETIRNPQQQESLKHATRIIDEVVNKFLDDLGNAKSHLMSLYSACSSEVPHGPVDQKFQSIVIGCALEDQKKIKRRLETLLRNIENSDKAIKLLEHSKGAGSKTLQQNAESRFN
UniProt Q96GS4: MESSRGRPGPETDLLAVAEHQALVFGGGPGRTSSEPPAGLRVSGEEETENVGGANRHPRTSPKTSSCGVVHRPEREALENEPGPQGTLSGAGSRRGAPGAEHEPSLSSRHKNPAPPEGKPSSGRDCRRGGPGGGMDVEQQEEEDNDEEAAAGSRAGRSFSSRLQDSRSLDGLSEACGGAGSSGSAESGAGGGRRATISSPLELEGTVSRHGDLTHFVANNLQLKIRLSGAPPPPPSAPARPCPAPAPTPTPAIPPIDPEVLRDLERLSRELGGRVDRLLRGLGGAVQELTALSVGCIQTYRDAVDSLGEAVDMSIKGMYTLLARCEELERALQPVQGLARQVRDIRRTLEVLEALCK
UniProt O75934: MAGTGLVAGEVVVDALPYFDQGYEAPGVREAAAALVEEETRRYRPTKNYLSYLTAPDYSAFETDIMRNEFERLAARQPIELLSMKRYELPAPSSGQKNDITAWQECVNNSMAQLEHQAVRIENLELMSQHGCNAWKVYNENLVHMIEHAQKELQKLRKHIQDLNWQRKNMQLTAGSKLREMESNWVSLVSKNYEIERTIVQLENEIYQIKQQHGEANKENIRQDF
UniProt Q6PJG6: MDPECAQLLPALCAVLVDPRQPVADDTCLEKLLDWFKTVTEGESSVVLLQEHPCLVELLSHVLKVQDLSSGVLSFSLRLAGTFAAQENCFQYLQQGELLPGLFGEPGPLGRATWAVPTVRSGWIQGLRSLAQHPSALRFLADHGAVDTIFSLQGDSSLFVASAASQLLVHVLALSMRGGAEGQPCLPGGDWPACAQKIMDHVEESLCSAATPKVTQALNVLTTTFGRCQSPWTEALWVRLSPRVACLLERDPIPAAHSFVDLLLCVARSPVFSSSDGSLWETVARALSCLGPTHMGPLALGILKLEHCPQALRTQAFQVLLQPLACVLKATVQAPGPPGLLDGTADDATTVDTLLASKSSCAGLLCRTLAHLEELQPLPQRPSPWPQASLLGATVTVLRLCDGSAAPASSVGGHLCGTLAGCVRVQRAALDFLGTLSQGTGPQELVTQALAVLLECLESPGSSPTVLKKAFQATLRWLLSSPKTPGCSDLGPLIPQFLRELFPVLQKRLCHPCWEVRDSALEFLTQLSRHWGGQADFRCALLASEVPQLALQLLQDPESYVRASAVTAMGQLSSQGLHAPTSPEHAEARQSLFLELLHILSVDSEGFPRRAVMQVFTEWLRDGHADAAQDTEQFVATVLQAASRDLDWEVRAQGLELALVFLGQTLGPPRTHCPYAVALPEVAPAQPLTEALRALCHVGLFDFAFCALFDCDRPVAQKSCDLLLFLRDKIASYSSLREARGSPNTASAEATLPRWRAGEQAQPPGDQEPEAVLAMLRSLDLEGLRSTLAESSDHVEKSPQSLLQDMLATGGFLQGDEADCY
UniProt Q9NUP1: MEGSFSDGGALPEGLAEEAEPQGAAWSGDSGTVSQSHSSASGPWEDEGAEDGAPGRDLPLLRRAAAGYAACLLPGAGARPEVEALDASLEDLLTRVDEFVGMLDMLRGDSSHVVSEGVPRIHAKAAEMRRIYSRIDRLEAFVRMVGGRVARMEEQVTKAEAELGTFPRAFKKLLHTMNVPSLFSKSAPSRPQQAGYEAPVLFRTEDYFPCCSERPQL
UniProt P53004: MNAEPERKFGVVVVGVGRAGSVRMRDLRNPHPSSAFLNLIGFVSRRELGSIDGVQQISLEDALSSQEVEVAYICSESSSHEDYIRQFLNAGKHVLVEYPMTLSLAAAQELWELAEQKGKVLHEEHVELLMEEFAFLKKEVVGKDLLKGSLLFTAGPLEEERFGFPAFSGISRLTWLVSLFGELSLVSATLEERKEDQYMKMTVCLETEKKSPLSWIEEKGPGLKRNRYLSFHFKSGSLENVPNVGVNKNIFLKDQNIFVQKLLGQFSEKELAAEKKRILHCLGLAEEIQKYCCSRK
UniProt Q9H3K6: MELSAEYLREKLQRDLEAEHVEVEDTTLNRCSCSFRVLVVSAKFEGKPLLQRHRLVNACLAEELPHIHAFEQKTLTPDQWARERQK
UniProt O15392, whole entry, looked up: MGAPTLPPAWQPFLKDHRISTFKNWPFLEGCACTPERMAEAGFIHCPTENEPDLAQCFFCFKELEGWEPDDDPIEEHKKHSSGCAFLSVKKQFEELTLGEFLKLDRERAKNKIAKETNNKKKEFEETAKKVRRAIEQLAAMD

Tests used:
Assay in all cases: log2 fold change, soluble protein after heating vs DMSO (PISA); higher = thermal stabilisation; K562 cells, 10 uM, 30 min; active = over 0.2 and 3.5 SD of the protein, either way, in both replicates (recomputed)
[1] = compound: C1COCCN1CCN2C3=CC=CC=C3N=C2NC(=O)C4=CC(=CC=C4)[N+](=O)[O-] [IRAK-1-4 Inhibitor I]
Outline: (§1)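 K562 cells at 2×10^6 cells/mL were treated for 30 min with 10 μM compound, and aliquots were heated for 3 min over 48°C-58°C before pooling. Extraction used PBS with 0.5% NP-40 at 4°C, and soluble protein was the supernatant after 21,000xg for 90 min, measured by TMTpro 16plex LC-MS/MS with channel sums equalised. Thermal stability values, relative to control samples and from duplicates, are log2 fold changes.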

[2] = compound: C=CC(=O)N1CCC[C@@H](n2nc(-c3ccc(Oc4ccccc4)cc3)c3c(N)ncnc32)C1 [ibrutinib]
Outline: as §1

[3] = compound: CC(=O)c1cnc2ccc(-c3cc(Cl)c(O)c(Cl)c3)nc2c1N[C@H]1CC[C@H](CN(C)C)CC1
Outline: as §1

[4] = compound: CC(C)(C)Cn1c(N)nc2ccc(-c3[nH]c(C(C)(C)C)nc3-c3ccc(F)cc3)nc21 [ralimetinib]
Outline: as §1

[5] = compound: CC(C)(O)CC(=O)NCCn1ccc2ncnc(Nc3ccc(Oc4cccc(C(F)(F)F)c4)c(Cl)c3)c21
Outline: as §1

[6] = compound: CC(C)C1=C2N=C(C=C(N2N=C1)NCC3=CC=CC=C3)NCCCCCCN
Outline: as §1

[7] = compound: CC(C)C[C@@H](C=O)NC(=O)[C@H](CC(C)C)NC(=O)[C@H](CC(C)C)NC(=O)OCc1ccccc1
Outline: as §1

[8] = compound: CC(C)N(C[C@H]1O[C@@H](n2cnc3c(N)ncnc32)[C@H](O)[C@@H]1O)[C@H]1C[C@@H](CCc2nc3cc(C(C)(C)C)ccc3[nH]2)C1 [pinometostat]
Outline: as §1

[9] = compound: CC1=C(C(CC(=O)N1)C2=CC=C(C=C2)C(F)(F)F)C(=O)NC3=C(C=C4C(=C3)C=NN4)F
Outline: as §1

[10] = compound: CC1=C(C2=C(C=C1)C(=O)C3=CC=CC=C3N2CCCN)C
Outline: as §1

[11] = compound: CC1=C(C=C(C=C1)NC(=O)C2=CC(=CC=C2)C(C)(C)C#N)NC3=CC4=C(C=C3)N=CN(C4=O)C
Outline: as §1

[12] = compound: CC1=C(C=C(C=C1)NC(=O)C2=CC(=CC=C2)N(C)C)NC(=O)C3=CC=C(C=C3)O
Outline: as §1

[13] = compound: CC1=CC=C(C=C1)SC2=C3C=C(SC3=CN=C2)C(=O)N
Outline: as §1

[14] = compound: CC1=NC(=CC=C1)C2=C(N=C(N2)C(C)(C)C)C3=CC4=NC=CN=C4C=C3
Outline: as §1

[15] = compound: CCCCN(Cc1ccc(C(=O)NO)cc1)C(=O)Nc1ccccc1 [Nexturastat A]
Outline: as §1

[16] = compound: CCCS(=O)(=O)Nc1ccc(F)c(C(=O)c2c[nH]c3ncc(-c4ccc(Cl)cc4)cc23)c1F [vemurafenib]
Outline: as §1

[17] = compound: CCCS(=O)(=O)Nc1ccc(F)c(C(=O)c2c[nH]c3ncc(Cl)cc23)c1F
Outline: as §1

[18] = compound: CCCc1cc(C)[nH]c(=O)c1CNC(=O)c1cc(-c2ccnc(N3CCN(C)CC3)c2)cc2c1cnn2C(C)C
Outline: as §1

[19] = compound: CCN(CC)Cc1ccc2cc(COC(=O)Nc3ccc(C(=O)NO)cc3)ccc2c1 [givinostat]
Outline: as §1

[20] = compound: CCN(CCCOc1ccc2c(Nc3cc(CC(=O)Nc4cccc(F)c4)[nH]n3)ncnc2c1)CCOP(=O)(O)O [barasertib]
Outline: as §1

Measured: log2 fold change

B4GALT3 (UniProt O60512)
inactive: [1] -0.033 | [2] 0.012 | [3] -0.009 | [4] -0.096 | [5] 0.036 | [6] -0.078 | [7] 0.125 | [8] 0.011 | [9] -0.093 | [10] -0.02 | [11] 0.047 | [12] 0.039 | [13] -0.03 | [14] 0.103 | [15] -0.205 | [16] 0.083 | [17] -0.002 | [18] 0.053 | [19] -0.028 | [20] -0.008

BCL10 (UniProt O95999)
inactive: [1] -0.015 | [2] 0 | [3] -0.026 | [4] -0.028 | [5] -0.035 | [6] -0.08 | [7] 0.071 | [8] 0.118 | [9] 0.082 | [10] -0.013 | [11] -0.001 | [12] 0.038 | [13] 0.042 | [14] -0.04 | [15] -0.002 | [16] 0.038 | [17] 0.016 | [18] 0.031 | [19] 0.005 | [20] 0.046

BLOC1S6 (UniProt Q9UL45)
inactive: [1] -0.058 | [2] -0.031 | [3] 0.035 | [4] -0.055 | [5] -0.183 | [6] -0.041 | [7] 0.027 | [8] -0.063 | [9] 0.119 | [10] 0 | [11] 0.059 | [12] 0.013 | [13] -0.027 | [14] 0.038 | [15] -0.061 | [16] 0.04 | [17] 0.034 | [18] 0.001 | [19] 0.086 | [20] -0.002

B3GLCT (UniProt Q6Y288)
inactive: [1] -0.041 | [2] -0.048 | [3] 0.017 | [4] 0 | [5] -0.061 | [6] 0 | [7] 0.069 | [8] 0.006 | [9] 0.032 | [10] 0.026 | [11] 0.023 | [12] 0.033 | [13] 0.005 | [14] 0.02 | [15] -0.059 | [16] -0.023 | [17] 0.077 | [18] 0.197 | [19] -0.036 | [20] -0.013

BAG6 isoform 3 (UniProt P46379)
inactive: [1] -0.016 | [2] -0.02 | [3] 0.02 | [4] 0.026 | [5] -0.034 | [6] -0.097 | [7] 0.127 | [8] 0.041 | [9] -0.021 | [10] -0.01 | [11] -0.021 | [12] -0.02 | [13] 0.025 | [14] 0.016 | [15] -0.01 | [16] 0.035 | [17] 0.076 | [18] 0.009 | [19] 0.014 | [20] 0.025

BSDC1 (UniProt Q9NW68)
inactive: [1] 0.057 | [2] 0.025 | [3] 0.06 | [4] 0.042 | [5] 0.009 | [6] 0.004 | [7] 0.014 | [8] -0.026 | [9] 0.051 | [10] -0.089 | [11] -0.032 | [12] 0.005 | [13] 0.031 | [14] 0.045 | [15] -0.006 | [16] 0.023 | [17] 0.02 | [18] -0.028 | [19] -0.018 | [20] -0.013

BAIAP2L1 (UniProt Q9UHR4)
inactive: [1] 0.048 | [2] -0.003 | [3] -0.052 | [4] -0.058 | [5] -0.008 | [6] 0.038 | [7] 0.033 | [8] -0.007 | [9] 0.007 | [10] 0.029 | [11] 0.006 | [12] 0.039 | [13] -0.019 | [14] -0.018 | [15] -0.022 | [16] -0.029 | [17] -0.019 | [18] -0.01 | [19] -0.014 | [20] -0.003

BAG2 (UniProt O95816)
inactive: [1] -0.022 | [2] 0.039 | [3] 0.145 | [4] 0.12 | [5] 0.103 | [6] -0.039 | [7] 0.072 | [8] 0.289 | [9] 0.013 | [10] -0.074 | [11] 0.046 | [12] 0.027 | [13] -0.032 | [14] -0.015 | [15] 0.15 | [16] -0.047 | [17] 0.093 | [18] 0.107 | [19] 0.014 | [20] -0.003

BORCS6 (UniProt Q96GS4)
inactive: [1] 0.023 | [2] -0.028 | [3] -0.001 | [4] -0.037 | [5] -0.037 | [6] -0.119 | [7] -0.019 | [8] -0.042 | [9] 0.15 | [10] 0.037 | [11] 0.113 | [12] 0.029 | [13] 0.066 | [14] -0.007 | [15] -0.122 | [16] 0.021 | [17] 0.009 | [18] -0.023 | [19] 0.007 | [20] 0.063

BCKDK (UniProt O14874)
inactive: [1] 0.013 | [2] 0.023 | [3] 0.03 | [4] 0.041 | [5] 0.023 | [6] 0.113 | [7] 0.036 | [8] -0.043 | [9] 0.036 | [10] 0.094 | [11] -0.031 | [12] 0.004 | [13] -0.033 | [14] 0.008 | [15] -0.018 | [16] -0.024 | [17] -0.008 | [18] -0.066 | [19] -0.011 | [20] -0.013

BCAS2 (UniProt O75934)
inactive: [1] 0.033 | [2] -0.008 | [3] 0.21 | [4] 0.058 | [5] -0.053 | [6] 0.094 | [7] -0.023 | [8] -0.001 | [9] -0.014 | [10] 0.163 | [11] -0.02 | [12] -0.073 | [13] -0.012 | [14] -0.024 | [15] 0.08 | [16] 0.033 | [17] -0.015 | [18] -0.02 | [19] 0.016 | [20] 0.043

BRAT1 (UniProt Q6PJG6)
inactive: [1] 0.002 | [2] 0.008 | [3] 0.02 | [4] 0.021 | [5] -0.098 | [6] -0.07 | [7] 0.069 | [8] 0.001 | [9] 0 | [10] 0.079 | [11] 0.007 | [12] 0.007 | [13] 0.013 | [14] 0.028 | [15] -0.012 | [16] 0.071 | [17] -0.003 | [18] -0.001 | [19] -0.008 | [20] 0.008

BLOC1S4 (UniProt Q9NUP1)
inactive: [1] -0.013 | [2] 0.012 | [3] -0.051 | [4] -0.096 | [5] -0.026 | [6] 0.024 | [7] 0.1 | [8] -0.076 | [9] 0.013 | [10] 0.044 | [11] 0.014 | [12] 0.042 | [13] 0.024 | [14] 0.032 | [15] -0.111 | [16] 0.114 | [17] -0.021 | [18] -0.001 | [19] 0.041 | [20] 0.061

BLVRA (UniProt P53004)
inactive: [1] 0.06 | [2] -0.017 | [3] -0.057 | [4] -0.044 | [5] -0.09 | [6] -0.031 | [7] -0.012 | [8] -0.004 | [9] -0.008 | [10] 0.038 | [11] -0.008 | [12] 0.012 | [13] -0.005 | [14] -0.003 | [15] -0.042 | [16] -0.003 | [17] 0.016 | [18] -0.01 | [19] -0.014 | [20] 0

Fetched one by one from above (2):
B4GALT3 (UniProt O60512)
inactive: [1] -0.033 | [2] 0.012 | [3] -0.009 | [4] -0.096 | [5] 0.036 | [6] -0.078 | [7] 0.125 | [8] 0.011 | [9] -0.093 | [10] -0.02 | [11] 0.047 | [12] 0.039 | [13] -0.03 | [14] 0.103 | [15] -0.205 | [16] 0.083 | [17] -0.002 | [18] 0.053 | [19] -0.028 | [20] -0.008

BLOC1S6 (UniProt Q9UL45)
inactive: [1] -0.058 | [2] -0.031 | [3] 0.035 | [4] -0.055 | [5] -0.183 | [6] -0.041 | [7] 0.027 | [8] -0.063 | [9] 0.119 | [10] 0 | [11] 0.059 | [12] 0.013 | [13] -0.027 | [14] 0.038 | [15] -0.061 | [16] 0.04 | [17] 0.034 | [18] 0.001 | [19] 0.086 | [20] -0.002

Further entries follow:

BOLA2 (UniProt Q9H3K6)
inactive: [1] 0.021 | [2] -0.017 | [3] -0.014 | [4] -0.02 | [5] -0.025 | [6] -0.052 | [7] -0.007 | [8] -0.035 | [9] -0.031 | [10] 0.085 | [11] 0.021 | [12] -0.062 | [13] 0.066 | [14] 0.012 | [15] -0.072 | [16] 0.03 | [17] 0.073 | [18] -0.039 | [19] 0.014 | [20] 0.033

BIRC5 (UniProt O15392)
inactive: [1] 0.044 | [2] -0.017 | [3] -0.174 | [4] 0.051 | [5] 0.018 | [6] 0.097 | [7] 0.066 | [8] 0.054 | [9] -0.059 | [10] -0.081 | [11] -0.057 | [12] -0.04 | [13] 0.078 | [14] 0.04 | [15] 0.008 | [16] -0.024 | [17] 0.034 | [19] -0.054 | [20] -0.014
